No constants are given. Whether binding was seen depends on the method and setting.
Columns and labels:
[1] = target: K63-linked diubiquitin (Boston Biochem) (human) (UniProt P0CG48); assay: western blot, 1 ug/mL IgG, LI-COR Odyssey
[2] = target: K63-linked diubiquitin (Boston Biochem) (human) (UniProt P0CG48); assay: condition: 1 µg/mL IgG; 1 µg K63-linked diubiquitin per lane; western blot
[3] = target: K63-linked diubiquitin (Boston Biochem) (human) (UniProt P0CG48); assay: phage spot ELISA, antigen coated at 1 µg/mL
[4] = target: K63-linked diubiquitin (Boston Biochem) (human) (UniProt P0CG48); assay: phage specificity ELISA, antigen coated at 1 µg/mL
[5] = target: K11-linked diubiquitin (Genentech) (human) (UniProt P0CG48); assay: phage specificity ELISA, 1 ug/mL coated antigen, anti-M13-HRP
[6] = target: K48-linked diubiquitin (Boston Biochem) (human) (UniProt P0CG48); assay: as above
[7] = target: K63-linked diubiquitin (Boston Biochem) (human) (UniProt P0CG48); assay: as above
[8] = target: monoubiquitin (Boston Biochem) (human) (UniProt P0CG48); assay: as above

Sequences of proteins named here, by UniProt entry; tags and fusion partners are left off. A change or cut given only in a name is not applied to a line headed by its entry.
UniProt P0CG48: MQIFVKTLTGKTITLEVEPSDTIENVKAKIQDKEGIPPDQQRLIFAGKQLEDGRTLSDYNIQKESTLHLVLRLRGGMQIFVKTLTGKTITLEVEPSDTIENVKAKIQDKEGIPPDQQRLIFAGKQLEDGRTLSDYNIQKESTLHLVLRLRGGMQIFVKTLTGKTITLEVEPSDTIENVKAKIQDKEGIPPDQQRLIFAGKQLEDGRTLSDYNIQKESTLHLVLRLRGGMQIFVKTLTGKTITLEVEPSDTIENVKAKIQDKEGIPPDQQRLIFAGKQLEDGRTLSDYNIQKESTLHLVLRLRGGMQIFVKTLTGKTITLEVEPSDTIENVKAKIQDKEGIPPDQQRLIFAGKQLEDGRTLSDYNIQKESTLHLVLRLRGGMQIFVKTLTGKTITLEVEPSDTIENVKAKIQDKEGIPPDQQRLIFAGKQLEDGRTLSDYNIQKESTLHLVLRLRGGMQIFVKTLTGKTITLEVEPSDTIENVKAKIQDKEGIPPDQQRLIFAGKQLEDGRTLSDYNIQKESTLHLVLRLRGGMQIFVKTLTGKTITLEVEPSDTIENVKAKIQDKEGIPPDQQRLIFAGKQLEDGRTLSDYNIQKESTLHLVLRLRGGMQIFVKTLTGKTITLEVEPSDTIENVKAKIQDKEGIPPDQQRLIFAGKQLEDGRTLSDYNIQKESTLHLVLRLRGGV

B1: 1F11 IgG (antibody, V domains shown)
VH: EVQLVESGGGLVQPGGSLRLSCAASGFTFSNTYISWVRQAPGKGLEWVASITPSSGSTDYADSVKGRFTISADTSKNTAYLQMNSLRAEDTAVYYCARTWLLRWVMDYWGQGTLVTVSS
VL: DIQMTQSPSSLSASVGDRVTITCRASQDVSTAVAWYQQKPGKAPKLLIYSAKFLYSGVPSRFSGSGSGTDFTLTISSLQPEDFATYYCQQSYTTPPTFGQGTKVEIK
- binding [1]: no binding (tested: 1000 ng per lane)
- binding [2]: no binding

B2: 1F11, Fab displayed on phage (Fab, V domains shown)
VH: B1 VH
VL: B1 VL
- binding [3]: no binding (tested: OD450 of less than 0.1)
- binding [4]: no binding (tested: OD450<0.16 at a phage OD268=1.0)
- binding [5]: no binding (tested: phage OD268 1)
- binding [6]: no binding (tested: phage OD268 1)
- binding [7]: no binding (tested: phage OD268 1)
- binding [8]: no binding (tested: phage OD268 1)

Source: patent US20130058955A1
